Measurements reported in PubChem BioAssay AID652243 (Drosophila RNAi Screening Center, 2013).

Screen: 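Knock-downs that decrease or increase androgen receptor reporter signal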 (primary screen)
Cell system: Drosophila S2R+ cells
Reagents: long dsRNA against Drosophila genes
Time to read-out: 72 h (48 h, then 24 h hormone)
Treatment: synthetic androgen R1881 at 10 nM for 24 h
Read-out: 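Firefly light from an androgen-responsive reporter and Renilla control light per well, raw and unnormalised, for each of two replicates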
Scale: firefly reporter light: higher = more light from androgen-responsive reporter; Renilla control light: higher = more constitutive control signal (cell number, transfection)
Call rule: 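Across duplicate plates, a knock-down whose log firefly/Renilla ratio shifted a set fold down or up from the GFP/LacZ control mean was a hit; the downward cut appears as both 1.5 and 3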
Calls: active = hit: reporter lowered or raised; inactive = no hit
In all, the deposit lists about 24,000 reagents; this is a random part of those that have a named target and a result. In the full data, 246 (1%) got an active call. 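Plates not normalised; calls are printed but the firefly/Renilla ratio behind them is not deposited; fold cut for lowering reported inconsistently.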 Raw values vary from plate to plate and are shown uncorrected. Names joined by + are all predicted targets of the reagent. The record does not give: the amount of reagent.

gene | dsRNA | firefly reporter light, replicate 1 | firefly reporter light, replicate 2 | Renilla control light, replicate 1 | Renilla control light, replicate 2 | call
puml | DRSC06793 | 2.03e5 | 1.82e5 | 1.62e6 | 1.06e6 | inactive
CG33290 | DRSC11493 | 1.96e5 | 2.43e5 | 5.28e5 | 5.55e5 | inactive
CG33290 | DRSC27148 | 2.14e5 | 2.32e5 | 5.69e5 | 6.11e5 | inactive
numb | DRSC03584 | 8.97e5 | 7.90e5 | 1.87e6 | 1.48e6 | inactive
CG32564 | DRSC19933 | 4.05e5 | 4.89e5 | 3.22e6 | 2.69e6 | inactive
CG32564 | DRSC25202 | 7.28e5 | 1.04e6 | 7.75e5 | 8.58e5 | inactive
CG5262 | DRSC11773 | 14383 | 11043 | 1.19e5 | 1.58e5 | inactive
CG10205 | DRSC05979 | 90444 | 84294 | 6.87e5 | 6.87e5 | inactive
CG17672 | DRSC09230 | 13508 | 17654 | 56644 | 58909 | inactive
CG17672 | DRSC10278 | 1.25e6 | 8.86e5 | 1.79e6 | 1.83e6 | inactive
CG15715 | DRSC10216 | 2.26e5 | 2.38e5 | 2.05e6 | 2.55e6 | inactive
CG15715 | DRSC25332 | 8.10e5 | 8.22e5 | 8.87e5 | 8.94e5 | inactive
CG4956 | DRSC15683 | 2.64e5 | 3.11e5 | 3.11e6 | 2.88e6 | inactive
CG4956 | DRSC24523 | 1.07e6 | 1.06e6 | 9.86e5 | 1.07e6 | inactive
AANATL5 | DRSC05994 | 1.03e5 | 1.28e5 | 1.84e6 | 2.04e6 | inactive
CG34432 | DRSC38678 | 1.06e6 | 9.06e5 | 1.77e6 | 2.05e6 | inactive
Eglp1 | DRSC04502 | 9.85e5 | 8.18e5 | 1.47e6 | 1.51e6 | inactive
MP1 | DRSC12124 | 8.29e5 | 1.02e6 | 1.95e6 | 2.24e6 | inactive
MP1 | DRSC28577 | 4.22e5 | 8.66e5 | 7.48e5 | 1.54e6 | inactive
wun | DRSC07719 | 1.20e6 | 1.26e6 | 2.90e6 | 2.01e6 | inactive
wun | DRSC36710 | – | – | – | – | inactive
wun | DRSC36711 | – | – | – | – | inactive
CG31784 | DRSC01574 | 1.88e5 | 2.17e5 | 6.48e5 | 6.65e5 | inactive
CG6163 | DRSC10595 | 1.30e5 | 1.68e5 | 1.53e6 | 1.31e6 | inactive
CG6163 | DRSC26527 | 3.33e5 | 2.18e5 | 4.92e5 | 3.87e5 | inactive
CG14435 | DRSC23282 | 6.87e5 | 6.77e5 | 9.78e5 | 1.43e6 | inactive
Gycbeta100B | DRSC14039 | 9.00e5 | 5.66e5 | 1.33e6 | 5.14e5 | inactive
Gycbeta100B | DRSC14040 | 1.02e6 | 6.28e5 | 9.19e5 | 5.32e5 | inactive
Gycbeta100B | DRSC16691 | 1.30e5 | 1.57e5 | 1.44e6 | 9.73e5 | inactive
Gycbeta100B | DRSC28797 | 3.10e5 | 3.63e5 | 1.03e6 | 9.16e5 | inactive
CG13364 | DRSC17898 | 1.69e5 | 1.66e5 | 2.05e6 | 1.80e6 | inactive
CG13364 | DRSC21263 | 2.11e5 | 2.25e5 | 5.99e5 | 4.64e5 | inactive
CG13364 | DRSC26743 | 7.01e5 | 6.90e5 | 1.06e6 | 9.27e5 | inactive

A portion taken from the entries so far, as a working copy:
gene | dsRNA | firefly reporter light, replicate 1 | firefly reporter light, replicate 2 | Renilla control light, replicate 1 | Renilla control light, replicate 2 | call
CG4956 | DRSC24523 | 1.07e6 | 1.06e6 | 9.86e5 | 1.07e6 | inactive
AANATL5 | DRSC05994 | 1.03e5 | 1.28e5 | 1.84e6 | 2.04e6 | inactive
CG34432 | DRSC38678 | 1.06e6 | 9.06e5 | 1.77e6 | 2.05e6 | inactive
Eglp1 | DRSC04502 | 9.85e5 | 8.18e5 | 1.47e6 | 1.51e6 | inactive
MP1 | DRSC12124 | 8.29e5 | 1.02e6 | 1.95e6 | 2.24e6 | inactive
MP1 | DRSC28577 | 4.22e5 | 8.66e5 | 7.48e5 | 1.54e6 | inactive

Continued.
gene | dsRNA | firefly reporter light, replicate 1 | firefly reporter light, replicate 2 | Renilla control light, replicate 1 | Renilla control light, replicate 2 | call
Irbp | DRSC17007 | 1.91e5 | 1.37e5 | 1.77e6 | 1.51e6 | inactive
Irbp | DRSC23317 | 7.39e5 | 8.71e5 | 1.16e6 | 1.36e6 | inactive
Irbp | DRSC29386 | 5.51e5 | 4.79e5 | 1.28e6 | 1.28e6 | inactive
fipi | DRSC00465 | 67682 | 1.04e5 | 3.48e5 | 5.44e5 | inactive
fipi | DRSC25365 | 7.31e5 | 6.60e5 | 9.67e5 | 6.54e5 | inactive
Marf1 | DRSC03747 | 2.27e5 | 2.18e5 | 1.44e6 | 1.55e6 | inactive
Marf1 | DRSC03774 | 2.13e5 | 2.54e5 | 6.32e5 | 5.33e5 | inactive
Cul1 | DRSC07645 | 1.13e6 | 1.19e6 | 1.62e6 | 1.54e6 | inactive
Cul1 | DRSC26395 | 2.37e5 | 2.96e5 | 5.62e5 | 5.89e5 | inactive
spn-E | DRSC17064 | 1.71e5 | 2.30e5 | 2.63e6 | 3.30e6 | inactive
Drep2 | DRSC07528 | 1.06e6 | 9.81e5 | 1.49e6 | 1.57e6 | inactive
Drep2 | DRSC25612 | 7.70e5 | 4.96e5 | 1.75e6 | 5.06e5 | inactive
rdhB | DRSC16190 | 94410 | 1.33e5 | 6.83e5 | 6.64e5 | inactive
CG3770 | DRSC04416 | 1.00e6 | 1.03e6 | 1.29e6 | 1.58e6 | inactive
CG12560 | DRSC02174 | 2.61e5 | 3.00e5 | 1.90e6 | 2.17e6 | inactive
CG14301 | DRSC14780 | 2.17e5 | 3.79e5 | 3.26e6 | 4.18e6 | inactive
pont | DRSC17029 | 76317 | 94403 | 1.28e6 | 1.23e6 | inactive
Cox11 | DRSC22692 | 6.32e5 | 6.02e5 | 1.93e6 | 1.99e6 | inactive
CG3407 | DRSC00603 | 6.04e5 | 6.08e5 | 9.69e5 | 9.41e5 | inactive
CG13545 | DRSC04187 | 4.83e5 | 4.64e5 | 2.91e6 | 2.01e6 | inactive
CG13545 | DRSC25484 | 1.07e6 | 1.03e6 | 1.33e6 | 1.18e6 | inactive
CG16711 | DRSC10220 | 1.91e5 | 1.74e5 | 1.76e6 | 1.53e6 | inactive
CG16711 | DRSC23733 | 7.65e5 | 9.74e5 | 8.75e5 | 7.84e5 | inactive
CG4271 | DRSC00649 | 1.63e5 | 1.09e5 | 1.17e6 | 7.59e5 | inactive
CG17376 | DRSC21717 | 5.40e5 | 5.48e5 | 2.03e6 | 2.79e6 | inactive
CG43673 + CG43672 | DRSC19452 | 4.03e5 | 4.47e5 | 2.80e6 | 2.07e6 | inactive
CG43673 + CG43672 | DRSC20108 | 4.81e5 | 4.00e5 | 3.64e6 | 2.65e6 | inactive
CG7878 | DRSC16330 | 59766 | 80127 | 1.72e6 | 1.12e6 | inactive
CG7878 | DRSC23990 | 6.44e5 | 7.62e5 | 8.51e5 | 8.23e5 | inactive
RASSF8 | DRSC15707 | 1.86e5 | 90061 | 9.47e5 | 6.49e5 | inactive
RASSF8 | DRSC26449 | 3.06e5 | 2.84e5 | 4.64e5 | 6.60e5 | inactive
CG2983 | DRSC38931 | 9.12e5 | 7.72e5 | 2.12e6 | 1.31e6 | inactive
sNPF-R | DRSC10836 | 3.04e5 | 2.01e5 | 3.02e6 | 2.61e6 | inactive
Irbp18 | DRSC10612 | 3.36e5 | 2.99e5 | 3.08e6 | 3.16e6 | inactive
BBS9 | DRSC04257 | 2.34e5 | 2.40e5 | 1.01e6 | 1.41e6 | inactive
BBS9 | DRSC27789 | 2.46e5 | 2.01e5 | 4.32e5 | 6.51e5 | inactive
CG30062 | DRSC21737 | 6.13e5 | 5.48e5 | 6.83e5 | 5.21e5 | inactive
larp | DRSC14728 | 1.97e5 | 2.96e5 | 2.27e6 | 2.90e6 | inactive
larp | DRSC16984 | 1.22e5 | 1.46e5 | 2.77e6 | 3.28e6 | active
larp | DRSC21856 | 8.03e5 | 9.74e5 | 1.42e6 | 1.47e6 | inactive
larp | DRSC24427 | 7.98e5 | 6.99e5 | 8.70e5 | 1.06e6 | inactive
larp | DRSC28325 | 4.72e5 | 6.40e5 | 8.92e5 | 1.47e6 | inactive
